According to publication PMC8889267:
These are yes or no findings as the source states them, for the method shown. In cells and extracts the contact can be indirect. Here binding means that the protein was enriched with, or labelled near, the bait; the list need not be complete. Sequences can lack the tags named with a protein.

T1: CLPC1-TRAP-STREPII (Arabidopsis thaliana) (UniProt Q9FI56)
T1 sequence: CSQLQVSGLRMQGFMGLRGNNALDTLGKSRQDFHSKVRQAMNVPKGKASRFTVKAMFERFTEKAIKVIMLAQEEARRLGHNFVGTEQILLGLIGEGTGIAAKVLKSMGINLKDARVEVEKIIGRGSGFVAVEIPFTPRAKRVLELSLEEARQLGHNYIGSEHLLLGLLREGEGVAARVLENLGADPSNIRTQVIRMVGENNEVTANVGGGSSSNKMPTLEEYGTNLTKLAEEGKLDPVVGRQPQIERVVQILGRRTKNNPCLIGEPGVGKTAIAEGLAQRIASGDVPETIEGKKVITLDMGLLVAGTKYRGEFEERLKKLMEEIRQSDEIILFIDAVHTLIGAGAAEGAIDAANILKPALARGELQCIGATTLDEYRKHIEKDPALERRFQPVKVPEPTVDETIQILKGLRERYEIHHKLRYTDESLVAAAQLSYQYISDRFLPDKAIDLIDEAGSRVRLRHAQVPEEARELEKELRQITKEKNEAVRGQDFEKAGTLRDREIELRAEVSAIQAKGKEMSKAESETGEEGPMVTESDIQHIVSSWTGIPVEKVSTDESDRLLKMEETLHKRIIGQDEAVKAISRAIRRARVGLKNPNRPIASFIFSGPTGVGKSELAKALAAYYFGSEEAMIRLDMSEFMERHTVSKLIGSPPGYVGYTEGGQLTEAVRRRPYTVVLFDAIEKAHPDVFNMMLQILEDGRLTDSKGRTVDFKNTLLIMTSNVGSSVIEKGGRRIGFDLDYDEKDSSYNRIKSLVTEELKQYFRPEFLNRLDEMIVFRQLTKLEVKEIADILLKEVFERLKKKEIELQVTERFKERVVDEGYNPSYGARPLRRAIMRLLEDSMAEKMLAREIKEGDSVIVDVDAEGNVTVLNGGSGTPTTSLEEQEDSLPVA

B1: pentatricopeptide repeat (PPR) protein (6 or 7 repeats) (AT1G02150.1) (protein, UniProt Q8LPS6 1-524)
chain: MLLQAAVQNRNVPLASSASYSRLLRCRSPVVSVAALSKKTAAIVCSISQVYGYGTVDYERRPIVQWNAIYKKISLMEKPELGAASVLNQWEKAGRKLTKWELCRVVKELRKYKRANQALEVYDWMNNRGERFRLSASDAAIQLDLIGKVRGIPDAEEFFLQLPENFKDRRVYGSLLNAYVRAKSREKAEALLNTMRDKGYALHPLPFNVMMTLYMNLREYDKVDAMVFEMKQKDIRLDIYSYNIWLSSCGSLGSVEKMELVYQQMKSDVSIYPNWTTFSTMATMYIKMGETEKAEDALRKVEARITGRNRIPYHYLLSLYGSLGNKKELYRVWHVYKSVVPSIPNLGYHALVSSLVRMGDIEGAEKVYEEWLPVKSSYDPRIPNLLMNAYVKNDQLETAEGLFDHMVEMGGKPSSSTWEILAVGHTRKRCISEALTCLRNAFSAEGSSNWRPKVLMLSGFFKLCEEESDVTSKEAVLELLRQSGDLEDKSYLALIDVDENRTVNNSEIDAHETDALLTQLQDDL
B2: zeaxanthin epoxidase (ZEP) (protein, UniProt Q9FGC7 60-667)
chain: AATALVEKEEKREAVTEKKKKSRVLVAGGGIGGLVFALAAKKKGFDVLVFEKDLSAIRGEGKYRGPIQIQSNALAALEAIDIEVAEQVMEAGCITGDRINGLVDGISGTWYVKFDTFTPAASRGLPVTRVISRMTLQQILARAVGEDVIRNESNVVDFEDSGDKVTVVLENGQRYEGDLLVGADGIWSKVRNNLFGRSEATYSGYTCYTGIADFIPADIESVGYRVFLGHKQYFVSSDVGGGKMQWYAFHEEPAGGADAPNGMKKRLFEIFDGWCDNVLDLLHATEEEAILRRDIYDRSPGFTWGKGRVTLLGDSIHAMQPNMGQGGCMAIEDSFQLALELDEAWKQSVETTTPVDVVSSLKRYEESRRLRVAIIHAMARMAAIMASTYKAYLGVGLGPLSFLTKFRVPHPGRVGGRFFVDIAMPSMLDWVLGGNSEKLQGRPPSCRLTDKADDRLREWFEDDDALERTIKGEWYLIPHGDDCCVSETLCLTKDEDQPCIVGSEPDQDFPGMRIVIPSSQVSKMHARVIYKDGAFFLMDLRSEHGTYVTDNEGRRYRATPNFPARFRSSDIIEFGSDKKAAFRVKVIRKTPKSTRKNESNNDKLLQTA
B3: pyruvate kinase-2 (typically homotetramer) (protein, UniProt Q9FLW9 64-579)
chain: SARVETEVIPVSPEDVPNREEQLERLLEMQQFGDTSVGMWSKPTVRRKTKIVCTVGPSTNTREMIWKLAEAGMNVARMNMSHGDHASHKKVIDLVKEYNAQTKDNTIAIMLDTKGPEVRSGDLPQPIMLDPGQEFTFTIERGVSTPSCVSVNYDDFVNDVEAGDMLLVDGGMMSFMVKSKTKDSVKCEVVDGGELKSRRHLNVRGKSATLPSITEKDWEDIKFGVENKVDFYAVSFVKDAQVVHELKKYLQNSGADIHVIVKIESADSIPNLHSIITASDGAMVARGDLGAELPIEEVPILQEEIINLCRSMGKAVIVATNMLESMIVHPTPTRAEVSDIAIAVREGADAVMLSGETAHGKFPLKAAGVMHTVALRTEATITSGEMPPNLGQAFKNHMSEMFAYHATMMSNTLGTSTVVFTRTGFMAILLSHYRPSGTIYAFTNEKKIQQRLALYQGVCPIYMEFTDDAEETFANALATLLKQGMVKKGEEIAIVQSGTQPIWRSQSTHNIQVRKV
B4: rpoC1 RNA polymerase (PEP) beta (protein, UniProt P56763 1-680)
chain: MIDRYKHQQLRIGLVSPQQISAWATKIIPNGEIVGEVTKPYTFHYKTNKPEKDGLFCERIFGPIKSGICACGNYRVIGDEKEDPKFCEQCGVEFVDSRIRRYQMGYIKLTCPVTHVWYLKRLPSYIANLLDKPLKELEGLVYCDFSFARPITKKPTFLRLRGSFEYEIQSWKYSIPLFFTTQGFDIFRNREISTGAGAIREQLADLDLRIIIENSLVEWKQLGEEGPTGNEWEDRKIVRRKDFLVRRMELAKHFIRTNIEPEWMVLCLLPVLPPELRPIIQIEGGKLMSSDINELYRRVIYRNNTLTDLLTTSRSTPGELVMCQEKLVQEAVDTLLDNGIRGQPMRDGHNKVYKSFSDVIEGKEGRFRETLLGKRVDYSGRSVIVVGPSLSLHRCGLPREIAIELFQTFVIRGLIRQHLASNIGVAKSQIREKKPIVWEILQEVMQGHPVLLNRAPTLHRLGIQSFQPILVEGRTICLHPLVCKGFNADFDGDQMAVHVPLSLEAQAEARLLMFSHMNLLSPAIGDPISVPTQDMLIGLYVLTSGTRRGICANRYNPCNRKNYQNERIYETNYKYTKEPFFCNSYDAIGAYRQKKINLDSPLWLRWQLDQRVIASREVPIEVHYESFGNYHEIYAHYLIVRSVKKENFCIYIRTTVGHISFYREIEEAIQGFSQACSYDT
B5: Mg-protoporphyrin IX chelatase - CHLI-2 (protein, UniProt Q5XF33 56-418)
chain: VMNVATEINSVEQAKKIDSKESARPVYPFAAIVGQDEMKLCLLLNVIDPKIGGVMIMGDRGTGKSTTVRSLVDLLPEITVVSGDPYNSDPRDPECMGKEVREKVQKGEELSVIETKINMVDLPLGATEDRVCGTIDIEKALTEGVKAFEPGLLAKANRGILYVDEVNLLDDHLVDVLLDSAASGWNTVEREGISISHPARFILIGSGNPEEGELRPQLLDRFGMHAQVGTVRDAELRVKIVEERARFDSNPKEFRETYQEEQLKLQEQITTARSNLSAVQIDQDLKVKISKVCAELDVDGLRGDMVINRAARALAALQGRDQVTAEDVGIVIPNCLRHRLRKDPLESMDSGILVTEKFYEVFT
B6: glucose-6-phosphate dehydrogenase 2 (G6PD2) (protein, UniProt Q9FY99 60-596)
chain: VFMQDGAIVTNSNSSESKTSLKGLKDEVLSALSQEAAKVGVESDGQSQSTVSITVVGASGDLAKKKIFPALFALYYEGCLPEHFTIFGYSRSKMTDVELRNMVSKTLTCRIDKRANCGEKMEEFLKRCFYHSGQYDSQEHFTELDKKLKEHEAGRISNRLFYLSIPPNIFVDAVKCASTSASSVNGWTRVIVEKPFGRDSETSAALTKSLKQYLEEDQIFRIDHYLGKELVENLSVLRFSNLIFEPLWSRQYIRNVQFIFSEDFGTEGRGGYFDNYGIIRDIMQNHLLQILALFAMETPVSLDAEDIRNEKVKVLRSMRPIRVEDVVIGQYKSHTKGGVTYPAYTDDKTVPKGSLTPTFAAAALFIDNARWDGVPFLMKAGKALHTRSAEIRVQFRHVPGNLYNRNTGSDLDQATNELVIRVQPDEAIYLKINNKVPGLGMRLDRSNLNLLYSARYSKEIPDAYERLLLDAIEGERRLFIRSDELDAAWSLFTPLLKEIEEKKRIPEYYPYGSRGPVGAHYLAAKHKVQWGDVSIDQ
B7: fibrillin 1b (FBN1b) (protein, UniProt O49629 60-310)
chain: ATDTGEIGSALLAAEEAIEDVEETERLKRSLVDSLYGTDRGLSASSETRAEIGDLITQLESKNPTPAPTEALFLLNGKWILAYTSFVNLFPLLSRGIVPLIKVDEISQTIDSDNFTVQNSVRFAGPLGTNSISTNAKFEIRSPKRVQIKFEQGVIGTPQLTDSIEIPEYVEVLGQKIDLNPIRGLLTSVQDTASSVARTISSQPPLKFSLPADNAQSWLLTTYLDKDIRISRGDGGSVFVLIKEGSPLLNP
B8: 5′-adenylylsulfate reductase-3 (APR3) (protein, UniProt P92980 70-458)
chain: ASEVTEKLDVVEVEDFEELAKRLENASPLEIMDKALEKFGNDIAIAFSGAEDVALIEYAHLTGRPYRVFSLDTGRLNPETYRLFDTVEKHYGIRIEYMFPDAVEVQALVRNKGLFSFYEDGHQECCRIRKVRPLRRALKGLRAWITGQRKDQSPGTRSEIPVVQVDPVFEGLDGGVGSLVKWNPVANVEGNDVWNFLRTMDVPVNTLHAAGYVSIGCEPCTRAVLPGQHEREGRWWWEDAKAKECGLHKGNIKENTNGNATANVNGTASVADIFNSENVVNLSRQGIENLMKLENRKEAWIVVLYAPWCPFCQAMEASFDELADKLGGSGVKVAKFRADGDQKDFAKKELQLGSFPTILVFPKNSSRPIKYPSEKRDVDSLTSFLNLVR
B9: 1-deoxy-D-xylulose 5-phosphate synthase (DXS1) (protein, UniProt Q38854 59-717)
chain: ASLAEKGEYYSNRPPTPLLDTINYPIHMKNLSVKELKQLSDELRSDVIFNVSKTGGHLGSSLGVVELTVALHYIFNTPQDKILWDVGHQSYPHKILTGRRGKMPTMRQTNGLSGFTKRGESEHDCFGTGHSSTTISAGLGMAVGRDLKGKNNNVVAVIGDGAMTAGQAYEAMNNAGYLDSDMIVILNDNKQVSLPTATLDGPSPPVGALSSALSRLQSNPALRELREVAKGMTKQIGGPMHQLAAKVDEYARGMISGTGSSLFEELGLYYIGPVDGHNIDDLVAILKEVKSTRTTGPVLIHVVTEKGRGYPYAERADDKYHGVVKFDPATGRQFKTTNKTQSYTTYFAEALVAEAEVDKDVVAIHAAMGGGTGLNLFQRRFPTRCFDVGIAEQHAVTFAAGLACEGLKPFCAIYSSFMQRAYDQVVHDVDLQKLPVRFAMDRAGLVGADGPTHCGAFDVTFMACLPNMIVMAPSDEADLFNMVATAVAIDDRPSCFRYPRGNGIGVALPPGNKGVPIEIGKGRILKEGERVALLGYGSAVQSCLGAAVMLEERGLNVTVADARFCKPLDRALIRSLAKSHEVLITVEEGSIGGFGSHVVQFLALDGLLDGKLKWRPMVLPDRYIDHGAPADQLAEAGLMPSHIAATALNLIGAPREALF
B10: 5′-adenylylsulfate reductase-1 (APR1) (protein, UniProt P92979 54-465)
chain: SSSVKPLNAEPKTKDSMIPLAATMVAEIAEEVEVVEIEDFEELAKKLENASPLEIMDKALEKYGNDIAIAFSGAEDVALIEYAHLTGRPFRVFSLDTGRLNPETYRFFDAVEKHYGIRIEYMFPDSVEVQGLVRSKGLFSFYEDGHQECCRVRKVRPLRRALKGLKAWITGQRKDQSPGTRSEIPVVQVDPVFEGLDGGVGSLVKWNPVANVEGNDVWNFLRTMDVPVNTLHAAGYISIGCEPCTKAVLPGQHEREGRWWWEDAKAKECGLHKGNVKENSDDAKVNGESKSAVADIFKSENLVTLSRQGIENLMKLENRKEPWIVVLYAPWCPFCQAMEASYDELADKLAGSGIKVAKFRADGDQKEFAKQELQLGSFPTILVFPKNSSRPIKYPSEKRDVESLTSFLNLVR

biological target: T1, CLPC1-TRAP-STREPII (Arabidopsis thaliana); assay: affinity purification with mass spectrometry; STREPII-tagged CLPC1-WT or CLPC1-TRAP from soluble leaf proteome of transgenic Arabidopsis rosettes, nondenaturing; StrepTactinXT beads, 50 mM Hepes-KOH pH 8.0, 15% glycerol, 10 mM MgCl2, 75 mM NaCl, eluted with 2.5 mM biotin; SDS-PAGE, in-gel trypsin digest, LC-MS/MS, spectral counting; three biological replicates; CGEP-STREP eluates as negative control

binding, binds:
B1, B2, B3, B4, B5, B6, B7, B8, B9, B10
